Primary screen of a compound library

Sequences of proteins named here, by UniProt entry; tags and fusion partners are left off. Residues count along the entry.
UniProt A4I591, 1-473: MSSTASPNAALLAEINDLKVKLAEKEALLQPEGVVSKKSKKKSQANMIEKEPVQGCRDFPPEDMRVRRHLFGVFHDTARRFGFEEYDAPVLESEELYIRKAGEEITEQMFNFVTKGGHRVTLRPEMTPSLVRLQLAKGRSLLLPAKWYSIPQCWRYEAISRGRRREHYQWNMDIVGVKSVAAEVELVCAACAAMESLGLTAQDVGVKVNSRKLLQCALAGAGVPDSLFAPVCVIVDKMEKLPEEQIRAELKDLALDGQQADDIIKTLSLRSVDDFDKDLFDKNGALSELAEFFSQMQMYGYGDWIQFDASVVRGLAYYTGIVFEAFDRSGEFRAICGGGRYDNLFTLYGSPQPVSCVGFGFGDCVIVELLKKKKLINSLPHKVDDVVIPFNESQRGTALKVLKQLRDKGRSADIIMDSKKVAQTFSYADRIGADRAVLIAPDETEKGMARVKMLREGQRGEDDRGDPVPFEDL

Source: ChEMBL document CHEMBL3988442, “University of Dundee, Small-Polar-MMV Screening Library” (2021).

A: 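Enzyme assay of histidyl-tRNA synthetase; the read-out is not stated. Target: Histidine-tRNA ligase, Leishmania infantum (UniProt A4I591). Compounds at 30 µM. The record gives no direction; compounds that gave an IC50 in retests scored well above the rest, so higher reads as stronger inhibition. The assay is labelled LdHisRS but filed under L. infantum. About 69,000 compounds were tested under these conditions; 0.6% (about 410) showed 50% or more at least once.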
B: 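Assay of Toxoplasma gondii numbers, read through their beta-galactosidase reporter with a colour substrate. Compounds at 10 µM. The record gives no direction; the compounds picked for IC50 retests had high values, so higher reads as fewer parasites. Of about 67,000 compounds tested this way, about 260 (0.38%) reached 50% or more in at least one test.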

Values are the deposited “Percent Effect”, in %. How 0% and 100% were set is not recorded. Most values in the screen are low, and negative values occur. The compounds are a random part of those screened. A dash means the value is not listed here; it may have been measured.

| compound | A | B |
|---|---|---|
| `Cc1ccsc1CNC(=O)Nc1ccn(CCN2CCOCC2)n1` | 4.8 | -11.92 |
| `CNS(=O)(=O)c1ccc(CNC(=O)c2cc(-c3ccccn3)no2)cc1` | 14.52 | -2.01 |
| `CCS(=O)(=O)N1CCC2(CCCN(c3ncc(F)cn3)C2)C1` (configuration not stated) | 16 | -1.554 |
| `CNC(=O)[C@@H](c1ccccc1OC)N1CCC[C@H]1C(=O)N1CC[C@@H](O)C1.Cl` | - | 0.7389 |
| `CCCOC1CCCN(C(=O)c2ccnc(N3CCN(C)CC3)c2)C1` (configuration not stated) | 9.677 | -3.18 |
| `CCOc1ccc(OCCN2CCC(N3CCNC3=O)CC2)cc1` | 16.51 | 21.3 |
| `Cc1cc2c(=O)n3c(nc2s1)CCN(Cc1cnc(C)n1C)CC3` | -1.042 | - |
| `Cc1cc(C)n(CC(=O)N2CCCCC2CCN2CCCC2=O)c(=O)n1` (configuration not stated) | 11.7 | -1.633 |
| `CC(=O)c1cccc(OCC(=O)NS(=O)(=O)c2cccs2)c1` | 8.475 | 4.657 |
| `O=C(NCc1ccccc1)[C@@H]1Cc2[nH]cnc2CN1CC1CC1` | 27.78 | 19.23 |
| `O=C(O)C(F)(F)F.O=C(O)C(F)(F)F.[H][C@@]12CN(CC3CC3)C[C@]1([H])OCCN2c1ncccn1` | - | 3.936 |
| `CCSCc1csc(-c2ccc(S(C)(=O)=O)cc2)n1` | 18.58 | 10.15 |
| `Cc1ccc(C2(CN3CCN(Cc4cncn4C)CC3)CC2)cc1.Cl` | - | 12.27 |
| `Cc1ccc(CN2C[C@H]3C[C@H](C(=O)Nc4cccnc4)[C@@H](C2)O3)cc1` | 22 | - |
| `Cc1cnc(N2CCOCC3(CCN(c4ccccn4)C3)C2)nc1` (configuration not stated) | 0 | - |
| `CC(=O)N1CCC(c2cc(C(F)(F)F)n3ccnc3n2)CC1` | 17.14 | -6.88 |
| `CN1CC(=O)N(c2cccc(F)c2)CC12CCN(Cc1ccsc1)C2.O=C(O)C(F)(F)F.O=C(O)C(F)(F)F` (configuration not stated) | - | 0.3386 |
| `COCCOCC(=O)NC1CCN(c2ccccn2)CC1` | 12.36 | 7.952 |
| `CSCCCN1CCCC(Cn2ccnc2)C1` (configuration not stated) | 13.22 | 0.2316 |
| `CC(C)C(O)C1(CNC(=O)Nc2ccc(CN3CCOC3=O)cc2)CC1` (configuration not stated) | 0 | -3.888 |
| `CN1CCN(C(=O)c2cccn2C)Cc2cccnc21` | 4.167 | 9.83 |
| `Cc1ncccc1NC(=O)[C@H]1C[C@@H]2CCN(Cc3nccs3)C[C@@H]2O1` | 15.04 | - |
| `O=C(c1c(O)cnc2ccccc12)N1CCN(CC(F)F)CC1` | 12.05 | -4.287 |
| `CCC1=N[C@@]2(CC[C@@H]3CN(C(=O)NCc4ccccc4C)C[C@@H]32)C(=O)N1` | 2.752 | - |
| `CCOC(=O)C1(NCC(=O)Nc2cc(C)ccc2OC)CCCC1` | 17.33 | -6.961 |
| `CCc1cccc(OC2CN(C(=O)[C@@H](N)CCSC)C2)c1` | 6.806 | 7.428 |
| `CCC1=NC(SCC(=O)c2ccc(Cl)cc2)c2cc(CC)sc2N1` (configuration not stated) | 8.621 | 23.77 |
| `CCc1nc(C)c(C(=O)NCCNc2ncccn2)s1` | 13.64 | 5.587 |
| `Cc1nnc(CN(C)CC2CCCN2c2cccnn2)o1` (configuration not stated) | 11.32 | -0.1122 |
| `Cn1cc(-c2nnn3c2COC(CNCC2CCOCC2)C3)cn1` (configuration not stated) | 2.655 | -43.99 |
| `COCc1cn(C2CCN(Cc3ccc(Cl)s3)CC2)nn1` | 1.653 | 0.9265 |
| `COCC1CN(C(=O)Cc2cccs2)Cc2c1cnn2C` (configuration not stated) | 19 | -4.098 |
| `O=C(O)C(F)(F)F.[H][C@@]12CN(CC)C[C@]1([H])[C@H](OC)CCN2S(=O)(=O)c1ccccc1F` | - | -6.495 |
| `CSCCNC(=O)c1ccc(OC2CCN(CC(C)(C)C)CC2)c(Cl)c1` | 13.21 | 1.329 |
| `CC(C)N1CCCC1c1cc(CCO)[nH]n1` (configuration not stated) | 8.696 | -11.39 |
| `O=C(O)C(F)(F)F.[H][C@]12C[C@@H](CN(C)C)N(C(C)=O)[C@@]1([H])CCN(C(=O)c1cccn1C)C2` | - | -11.5 |
| `CNS(=O)(=O)c1ccc(CNC(=O)N(CC(C)C)C(C)C)cc1` | 19.75 | 6.073 |
| `CN1CCC(N(C)C(=O)c2cnn(-c3ccccc3Br)c2N)CC1` | 19.8 | 5.512 |
| `Cn1nc(CN2CCCCC2)c2c1CN(C(=O)c1ccoc1)C2` | 2.655 | 1.668 |
| `[H][C@]12CC[C@]([H])(CN(c3nc(C)c4ccc(S(C)(=O)=O)cc4n3)C1)N2` | - | -7.769 |
| `COc1cccc(CNc2cc(CO)ccc2Cl)c1` | 6.4 | 5.476 |
| `COc1ccc(CS(=O)(=O)CC(=O)NCC2CC2)cc1F` | 25.71 | 4.977 |
| `CC1CCCCN1C(=O)CCc1nnc(-c2ccccc2)o1` (configuration not stated) | 38.55 | -10.05 |
| `COc1cc(C#N)ccc1OCC(=O)NS(=O)(=O)c1ccccc1` | 9.735 | 3.562 |
| `COc1cc(NCc2ccncc2)c(-c2nn[nH]n2)cc1OC` | 23.46 | -22.7 |
| `CNC(=O)c1ccc2c(c1)C1(CCN(CCOC)CC1)C(=O)N2.O=C(O)C(F)(F)F` | - | 0.5941 |
| `CC[C@@H]1N(Cc2ccc(F)cc2)CCC[C@]12CCC(=O)N2C.O=C(O)C(F)(F)F` | - | -31.7 |
| `O=C(CC1CN(Cc2ccccc2)CCO1)Nc1ccsc1` (configuration not stated) | 22.35 | 18.66 |
| `COCCO[C@H]1CCN(c2ccc(C)nn2)[C@H]1Cc1cnn(C)c1` | 8.257 | -5.655 |
| `CN(C)C(=O)CCNC(=O)NCc1ccc(Br)cc1Cl` | -2.151 | -13.43 |
| `COc1cc2c(cc1OC)S(=O)(=O)N(Cc1ccccc1C)C2=O` | -7.5 | -5.822 |
| `Cc1nccn1CC1CCN(C(=O)c2ccccc2)CC1` | 20.51 | 23.09 |
| `Cc1ccc(CN(C)C(=O)CN2CCCC(Cn3cncn3)C2)o1` (configuration not stated) | 19.23 | -31.38 |
| `Cc1nc(CNCc2ccc(OC34CCCN(CC3)C4)cc2)n[nH]1` (configuration not stated) | 12.94 | 5.263 |
| `Cc1nc(C)c(C(=O)Nc2cc(N3CCC(C)CC3)ncn2)s1` | 8.475 | -8.218 |
| `N#CCCN(Cc1cccnc1)C(=O)c1ccc(OCC2CC2)cc1` | 18.75 | 0.146 |
| `COc1cccc(COc2nc(C(C)C)no2)c1` | -13.16 | 8.9 |
| `CCOCC(=O)N1CCCn2c(nnc2Cn2cccc2)C1` | -86.17 | -4.091 |
| `COc1cc(NC(=O)N(C)CCC2CC2)ncn1` | 5 | 3.612 |
| `CC(=O)N1CCO[C@@H]2CN(S(=O)(=O)c3cccnc3)C[C@@H]2C1` | 9.615 | - |

The last 7 entries again:

{"compound": "Cc1nc(CNCc2ccc(OC34CCCN(CC3)C4)cc2)n[nH]1", "stereo": "configuration not stated", "A": 12.94, "B": 5.263}
{"compound": "Cc1nc(C)c(C(=O)Nc2cc(N3CCC(C)CC3)ncn2)s1", "A": 8.475, "B": -8.218}
{"compound": "N#CCCN(Cc1cccnc1)C(=O)c1ccc(OCC2CC2)cc1", "A": 18.75, "B": 0.146}
{"compound": "COc1cccc(COc2nc(C(C)C)no2)c1", "A": -13.16, "B": 8.9}
{"compound": "CCOCC(=O)N1CCCn2c(nnc2Cn2cccc2)C1", "A": -86.17, "B": -4.091}
{"compound": "COc1cc(NC(=O)N(C)CCC2CC2)ncn1", "A": 5, "B": 3.612}
{"compound": "CC(=O)N1CCO[C@@H]2CN(S(=O)(=O)c3cccnc3)C[C@@H]2C1", "A": 9.615}